# Measurements: PubChem BioAssay AID1347080 (ICCB-Longwood Screening Facility, Harvard Medical School, 2019)
# Several values for one entry are separate records, joined by “and”; a condition that tells them apart may be missing. Equal entries are not always repeated. The list shows a part of the results.
# Experiment: sensitizers of A549 cells to miR-34 induction, primary screen, imaging, A549 dox-inducible miR-34, nuclei and caspase counts (AID 1347080); note: test concentration not given here
# Conditions: A549 miR-34 inducible, Hoechst nuclei count, 48 h
smiles,measurement,setting,value
CN(CCCl)CCCl,fold change,measured here: relative caspase fold change +Dox/-Dox,1.54 and 1.22
same,cell count,"measured here: total cells with miR-34 induction, stronger effect = lower value",1990 and 2240
same,cell count,measured here: total cells without miR-34 induction,2170 and 2380
